Structures can show the parent of a compound that is named as a salt. The list shows a part of the results. Most values lie at the level of the controls, where differences are scatter.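 Using flow cytometry, the assay measures the median γH2AX antibody signal in S-phase Reh cells (a human leukemia line). Each score is the number of standard deviations from the median difference of paired plate sets. Candidate hits scored above 2.5; compounds scoring below -2 lowered MK1775-induced damage.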
Test system: Reh
Assay: Z' of S-phase gammaH2AX difference (drug + MK1775 minus drug alone) (Z-score); higher = stronger synergistic S-phase DNA damage with MK1775
Details: MK1775 concentration 400 nM; first compound 10 µM; 4 h

| Structure (SMILES) | Z' of S-phase gammaH2AX difference (Z-score) |
| --- | --- |
| Cc1ccc(NC(=O)c2cccc(C(C)(C)C#N)c2)cc1Nc1ccc2ncn(C)c(=O)c2c1 + C=CCn1c(=O)c2cnc(Nc3ccc(N4CCN(C)CC4)cc3)nc2n1-c1cccc(C(C)(C)O)n1 [MK1775] | inactive: 0.327 |
| OCCN(CCO)c1nc(N2CCCCC2)c2nc(N(CCO)CCO)nc(N3CCCCC3)c2n1 [Dipyridamole] + C=CCn1c(=O)c2cnc(Nc3ccc(N4CCN(C)CC4)cc3)nc2n1-c1cccc(C(C)(C)O)n1 [MK1775] | inactive: 0.0121 |
| C[N+](C)(C)CC(=O)O [Betaine hydrochloride] + C=CCn1c(=O)c2cnc(Nc3ccc(N4CCN(C)CC4)cc3)nc2n1-c1cccc(C(C)(C)O)n1 [MK1775] | inactive: -0.367 |
| N[C@@H](CS(=O)O)C(=O)O [L-Cysteinesulfinic Acid] + C=CCn1c(=O)c2cnc(Nc3ccc(N4CCN(C)CC4)cc3)nc2n1-c1cccc(C(C)(C)O)n1 [MK1775] | inactive: 0.167 |
| COC(=O)[C@H](NC(=O)c1cc(-c2ccccc2)nc2ccccc12)c1ccccc1 + C=CCn1c(=O)c2cnc(Nc3ccc(N4CCN(C)CC4)cc3)nc2n1-c1cccc(C(C)(C)O)n1 [MK1775] | inactive: -0.299 |
| N#Cc1cc2nc(O)c(O)nc2cc1[N+](=O)[O-] [CNQX disodium] + C=CCn1c(=O)c2cnc(Nc3ccc(N4CCN(C)CC4)cc3)nc2n1-c1cccc(C(C)(C)O)n1 [MK1775] | inactive: 0.401 |
| C[C@@H](CN1CCC(Cc2ccccc2)CC1)[C@@H](O)c1ccc(O)cc1 [Ro 25-6981 hydrochloride] + C=CCn1c(=O)c2cnc(Nc3ccc(N4CCN(C)CC4)cc3)nc2n1-c1cccc(C(C)(C)O)n1 [MK1775] | inactive: 0.495 |
| Cc1cc(NC(=O)Nc2ccc3c(ccn3C)c2)sn1 + C=CCn1c(=O)c2cnc(Nc3ccc(N4CCN(C)CC4)cc3)nc2n1-c1cccc(C(C)(C)O)n1 [MK1775] | inactive: 1.29 |
| Cc1ccc(=O)n(-c2ccccc2)c1 [Pirfenidone] + C=CCn1c(=O)c2cnc(Nc3ccc(N4CCN(C)CC4)cc3)nc2n1-c1cccc(C(C)(C)O)n1 [MK1775] | inactive: -0.757 |
| O=C(Cc1ccc(Cl)c(Cl)c1)OCCN1CCCC1 [AC 915 oxalate] + C=CCn1c(=O)c2cnc(Nc3ccc(N4CCN(C)CC4)cc3)nc2n1-c1cccc(C(C)(C)O)n1 [MK1775] | inactive: -0.257 |
| O=C(/C=C/c1ccc(O)cc1)c1ccc(O)cc1O [Isoliquiritigenin] + C=CCn1c(=O)c2cnc(Nc3ccc(N4CCN(C)CC4)cc3)nc2n1-c1cccc(C(C)(C)O)n1 [MK1775] | inactive: -0.449 |
| N#CCNC(=O)c1ccc(-c2ccnc(Nc3ccc(N4CCOCC4)cc3)n2)cc1 + C=CCn1c(=O)c2cnc(Nc3ccc(N4CCN(C)CC4)cc3)nc2n1-c1cccc(C(C)(C)O)n1 [MK1775] | inactive: -1.14 |
| CN(C)CCCN=c1c2ccccc2n(C)c2[nH]c(=O)n(C)c(=O)c12 + C=CCn1c(=O)c2cnc(Nc3ccc(N4CCN(C)CC4)cc3)nc2n1-c1cccc(C(C)(C)O)n1 [MK1775] | inactive: -0.175 |
| Nc1cc(=O)[nH]c(N)n1 [2,6-Diamino-4-pyrimidinone] + C=CCn1c(=O)c2cnc(Nc3ccc(N4CCN(C)CC4)cc3)nc2n1-c1cccc(C(C)(C)O)n1 [MK1775] | inactive: 1.49 |
| N[C@@H](Cc1c[nH]c2ccccc12)C(=O)O [L-Tryptophan] + C=CCn1c(=O)c2cnc(Nc3ccc(N4CCN(C)CC4)cc3)nc2n1-c1cccc(C(C)(C)O)n1 [MK1775] | inactive: 0.0988 |
| COC1(C2=NCCN2)COc2ccccc2O1 (stereo not given) + C=CCn1c(=O)c2cnc(Nc3ccc(N4CCN(C)CC4)cc3)nc2n1-c1cccc(C(C)(C)O)n1 [MK1775] | inactive: -0.0131 |
| CC(C)NC[C@@H](O)COc1ccc(CC(N)=O)cc1 [R(+)-Atenolol] + C=CCn1c(=O)c2cnc(Nc3ccc(N4CCN(C)CC4)cc3)nc2n1-c1cccc(C(C)(C)O)n1 [MK1775] | inactive: -0.431 |
| COc1cc2nccc(Oc3ccc(NC(=O)NC4CC4)c(Cl)c3)c2cc1C(N)=O [E7080 (Lenvatinib)] + C=CCn1c(=O)c2cnc(Nc3ccc(N4CCN(C)CC4)cc3)nc2n1-c1cccc(C(C)(C)O)n1 [MK1775] | inactive: -0.288 |
| CCn1c(=O)[nH]c2cc(Cl)c(Cl)cc21 + C=CCn1c(=O)c2cnc(Nc3ccc(N4CCN(C)CC4)cc3)nc2n1-c1cccc(C(C)(C)O)n1 [MK1775] | inactive: -0.172 |
| CN1C(=O)CC[C@H]1c1cccnc1 [(-)-Cotinine] + C=CCn1c(=O)c2cnc(Nc3ccc(N4CCN(C)CC4)cc3)nc2n1-c1cccc(C(C)(C)O)n1 [MK1775] | inactive: 0.675 |
| CC[C@@H]1C(=O)OC[C@@H]1Cc1cncn1C [(+)-Pilocarpine hydrochloride] + C=CCn1c(=O)c2cnc(Nc3ccc(N4CCN(C)CC4)cc3)nc2n1-c1cccc(C(C)(C)O)n1 [MK1775] | inactive: -0.267 |
| CC[C@@H]1C(=O)OC[C@@H]1Cc1cncn1C [Pilocarpine nitrate] + C=CCn1c(=O)c2cnc(Nc3ccc(N4CCN(C)CC4)cc3)nc2n1-c1cccc(C(C)(C)O)n1 [MK1775] | inactive: -0.349 |
| CSC(=N)NCCC[C@H](N)C(=O)O [S-Methyl-L-thiocitrulline acetate] + C=CCn1c(=O)c2cnc(Nc3ccc(N4CCN(C)CC4)cc3)nc2n1-c1cccc(C(C)(C)O)n1 [MK1775] | inactive: 0.98 |
| O=c1oc2c(O)c(O)cc3c(=O)oc4c(O)c(O)cc1c4c23 [Ellagic acid] + C=CCn1c(=O)c2cnc(Nc3ccc(N4CCN(C)CC4)cc3)nc2n1-c1cccc(C(C)(C)O)n1 [MK1775] | inactive: 0.0436 |
| NS(=O)(=O)c1cc2c(cc1Cl)NC(C1CC3C=CC1C3)NS2(=O)=O (stereo not given) [Cyclothiazide] + C=CCn1c(=O)c2cnc(Nc3ccc(N4CCN(C)CC4)cc3)nc2n1-c1cccc(C(C)(C)O)n1 [MK1775] | inactive: 0.337 |

Copied from above for reference:

| Structure (SMILES) | Z' of S-phase gammaH2AX difference (Z-score) |
| --- | --- |
| CC(C)NC[C@@H](O)COc1ccc(CC(N)=O)cc1 [R(+)-Atenolol] + C=CCn1c(=O)c2cnc(Nc3ccc(N4CCN(C)CC4)cc3)nc2n1-c1cccc(C(C)(C)O)n1 [MK1775] | inactive: -0.431 |
| COc1cc2nccc(Oc3ccc(NC(=O)NC4CC4)c(Cl)c3)c2cc1C(N)=O [E7080 (Lenvatinib)] + C=CCn1c(=O)c2cnc(Nc3ccc(N4CCN(C)CC4)cc3)nc2n1-c1cccc(C(C)(C)O)n1 [MK1775] | inactive: -0.288 |
| CCn1c(=O)[nH]c2cc(Cl)c(Cl)cc21 + C=CCn1c(=O)c2cnc(Nc3ccc(N4CCN(C)CC4)cc3)nc2n1-c1cccc(C(C)(C)O)n1 [MK1775] | inactive: -0.172 |
| CN1C(=O)CC[C@H]1c1cccnc1 [(-)-Cotinine] + C=CCn1c(=O)c2cnc(Nc3ccc(N4CCN(C)CC4)cc3)nc2n1-c1cccc(C(C)(C)O)n1 [MK1775] | inactive: 0.675 |

From the supplement of paper PMC5355238
